Experimental data published in publication PMC8573869.
Residue numbers refer to the chain shown, from its start. Results are given in words; binding and its absence hold for the method and conditions named. Binding seen in cells or lysates may run through a third protein. Some binding calls cover weakened binding; strength is not graded here. For some of these results: Sequences can lack the tags named with a protein. One block for each molecule: values may come before it.

Protein sequences, listed by entry. Tags and fused reporters are not part of them.
UniProt O95197: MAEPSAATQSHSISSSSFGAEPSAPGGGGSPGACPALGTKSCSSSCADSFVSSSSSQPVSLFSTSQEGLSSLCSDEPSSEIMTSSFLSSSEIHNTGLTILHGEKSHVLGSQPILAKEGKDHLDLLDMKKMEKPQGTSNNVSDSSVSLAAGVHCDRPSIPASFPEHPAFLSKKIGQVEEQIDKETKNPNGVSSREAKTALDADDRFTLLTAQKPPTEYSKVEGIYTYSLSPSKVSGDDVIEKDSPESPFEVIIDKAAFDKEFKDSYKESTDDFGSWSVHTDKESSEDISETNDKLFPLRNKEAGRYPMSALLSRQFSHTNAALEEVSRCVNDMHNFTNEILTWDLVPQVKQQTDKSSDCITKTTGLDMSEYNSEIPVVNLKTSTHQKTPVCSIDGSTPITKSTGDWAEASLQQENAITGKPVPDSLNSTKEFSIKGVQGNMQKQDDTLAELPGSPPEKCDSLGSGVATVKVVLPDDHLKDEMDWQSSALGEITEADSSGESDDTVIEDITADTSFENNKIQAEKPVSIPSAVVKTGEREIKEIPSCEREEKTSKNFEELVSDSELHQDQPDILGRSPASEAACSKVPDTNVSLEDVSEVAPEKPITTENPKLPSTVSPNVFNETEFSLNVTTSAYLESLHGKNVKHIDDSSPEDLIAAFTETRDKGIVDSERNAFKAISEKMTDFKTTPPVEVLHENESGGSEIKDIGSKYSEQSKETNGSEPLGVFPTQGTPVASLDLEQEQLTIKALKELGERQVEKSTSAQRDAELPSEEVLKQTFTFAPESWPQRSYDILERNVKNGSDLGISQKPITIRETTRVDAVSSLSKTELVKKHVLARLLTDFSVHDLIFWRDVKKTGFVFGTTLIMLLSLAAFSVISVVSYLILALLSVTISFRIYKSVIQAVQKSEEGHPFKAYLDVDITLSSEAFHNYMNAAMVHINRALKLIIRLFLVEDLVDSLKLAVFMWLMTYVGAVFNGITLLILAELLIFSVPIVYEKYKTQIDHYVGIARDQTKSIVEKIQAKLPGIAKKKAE

Tests used:
[1] = target: T1, FLAG-tagged dominant-active Rab32Q85L (UniProt Q13637); assay: co-IP; MCF7 cells transfected for 48 h with FLAG-tagged Rab32 constructs; crosslinked with 2 mM DSP 30 min at room temperature, lysed in Chaps buffer (150 mM NaCl, 10 mM Tris pH 7.4, 1 mM EDTA, 1% Chaps); anti-FLAG precipitation on Protein A Sepharose; blot for the endogenous partner
T1 sequence: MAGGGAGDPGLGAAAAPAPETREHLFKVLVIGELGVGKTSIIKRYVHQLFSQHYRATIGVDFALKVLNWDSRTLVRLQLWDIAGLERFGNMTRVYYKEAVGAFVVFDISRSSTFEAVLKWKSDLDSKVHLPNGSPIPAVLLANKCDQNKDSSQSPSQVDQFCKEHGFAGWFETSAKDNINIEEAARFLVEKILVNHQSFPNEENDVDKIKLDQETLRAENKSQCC

[2] = target: T2, FLAG-tagged dominant-negative Rab32T39N (UniProt Q13637); assay: as above
T2 sequence: T1 sequence with T39N, L85Q

[3] = target: HA-tagged RTN3L (expressed in MCF7 cells) (UniProt O95197); assay: co-IP; MCF7 cells transfected with HA-tagged RTN3L; lysis, anti-HA precipitation; blot for endogenous Rab32 (the legend names no crosslinking)

binding [1]: binds
Molecule: endogenous long reticulon-3 (RTN3L) (from UniProt O95197 1-1032)

binding [2]: no binding
binding [1]: no binding
B1: endogenous cell cycle progression 1 (CCPG1) (protein, UniProt Q9ULG6 1-757)
chain: MSENSSDSDSSCGWTVISHEGSDIEMLNSVTPTDSCEPAPECSSLEQEELQALQIEQGESSQNGTVLMEETAYPALEETSSTIEAEEQKIPEDSIYIGTASDDSDIVTLEPPKLEEIGNQEVVIVEEAQSSEDFNMGSSSSSQYTFCQPETVFSSQPSDDESSSDETSNQPSPAFRRRRARKKTVSASESEDRLVAEQETEPSKELSKRQFSSGLNKCVILALVIAISMGFGHFYGTIQIQKRQQLVRKIHEDELNDMKDYLSQCQQEQESFIDYKSLKENLARCWTLTEAEKMSFETQKTNLATENQYLRVSLEKEEKALSSLQEELNKLREQIRILEDKGTSTELVKENQKLKQHLEEEKQKKHSFLSQRETLLTEAKMLKRELERERLVTTALRGELQQLSGSQLHGKSDSPNVYTEKKEIAILRERLTELERKLTFEQQRSDLWERLYVEAKDQNGKQGTDGKKKGGRGSHRAKNKSKETFLGSVKETFDAMKNSTKEFVRHHKEKIKQAKEAVKENLKKFSDSVKSTFRHFKDTTKNIFDEKGNKRFGATKEAAEKPRTVFSDYLHPQYKAPTENHHNRGPTMQNDGRKEKPVHFKEFRKNTNSKKCSPGHDCRENSHSFRKACSGVFDCAQQESMSLFNTVVNPIRMDEFRQIIQRYMLKELDTFCHWNELDQFINKFFLNGVFIHDQKLFTDFVNDVKDYLRNMKEYEVDNDGVFEKLDEYIYRHFFGHTFSPPYGPRSVYIKPCHYSSL

binding [3]: binds
B2: endogenous Rab32 (protein, UniProt Q13637 1-225)
chain: T1 sequence with L85Q
